Data as given in PubChem BioAssay AID504804 (Drosophila RNAi Screening Center, 2011).
In all, the deposit lists about 19,000 reagents; this is a random part of those that have a named target and a result. In the full data, 47 (0.25%) were called active. 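Signals are raw, not normalised; exact z-scores behind calls not deposited; actives needed confirmation, so some wells reaching 2 SD are inactive.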 Entries without a mark were called inactive. The numbers tell different reagents against one gene apart. Reagent sequences are not shown.

Assay: 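Fly genes whose loss lessens doxorubicin-driven cell death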 (primary screen)
System: Drosophila Kc cells
Reagents: long dsRNA against Drosophila genes, 0.5 µg dsRNA per well
Time to read-out: 96 h (48 h knock-down, then 48 h drug)
Challenge: doxorubicin 5 µg/ml for 48 h, added 48 h after dsRNA
Measured: 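Viability measured as cellular ATP by luminescence after 48 h knock-down then 48 h doxorubicin at 5 µg/ml; unnormalised plate counts for each replicate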
Scale: raw ATP luminescence: higher = more viable cells, protection from doxorubicin
Hit rule: 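Active when both duplicate wells lie at least 2 SD above the plate mean and protection is confirmed by rescreening and independent dsRNAs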

With knock-down of CG11828 (GeneID 43416) the results were raw ATP luminescence, replicate 1 = 61810; raw ATP luminescence, replicate 2 = 45690.
Knock-down of Proc-R (GeneID 31408) resulted in: raw ATP luminescence, replicate 1 = 47170; raw ATP luminescence, replicate 2 = 48880.
Knock-down of sob (GeneID 33581) resulted in: raw ATP luminescence, replicate 1 = 25953; raw ATP luminescence, replicate 2 = 36113.
With knock-down of VGlut (GeneID 33427), the record shows raw ATP luminescence, replicate 1 = 2.15e5; raw ATP luminescence, replicate 2 = 1.87e5.
Depletion of CG32473 (GeneID 41636) #1 came out at: raw ATP luminescence, replicate 1 = 84240; raw ATP luminescence, replicate 2 = 86980.
For CG32473 (GeneID 41636) #2, the values are raw ATP luminescence, replicate 1 = 51037; raw ATP luminescence, replicate 2 = 28740.
With knock-down of Spn43Ab (GeneID 45040), the record shows raw ATP luminescence, replicate 1 = 63400; raw ATP luminescence, replicate 2 = 77193.
Knock-down of Trap1 (GeneID 35559) came out at: raw ATP luminescence, replicate 1 = 78720; raw ATP luminescence, replicate 2 = 71293.
Plc21C (GeneID 33204) gave raw ATP luminescence, replicate 1 = 1.03e5; raw ATP luminescence, replicate 2 = 82257.
With knock-down of Ppt1 (GeneID 31805) the results were raw ATP luminescence, replicate 1 = 47430; raw ATP luminescence, replicate 2 = 43830.
For mus301 (GeneID 38905), the values are raw ATP luminescence, replicate 1 = 68623; raw ATP luminescence, replicate 2 = 70997.
Silencing of CG33203 (GeneID 43414) #1 resulted in: raw ATP luminescence, replicate 1 = 28980; raw ATP luminescence, replicate 2 = 29370.
CG33203 (GeneID 43414) #2 scored raw ATP luminescence, replicate 1 = 67460; raw ATP luminescence, replicate 2 = 37440.
After knock-down of CG33203 (GeneID 43414) #3 the results were raw ATP luminescence, replicate 1 = 61960; raw ATP luminescence, replicate 2 = 47080.
Silencing of Bhmt (GeneID 35153) came out at: raw ATP luminescence, replicate 1 = 51653; raw ATP luminescence, replicate 2 = 63673.
With knock-down of CG1529 (GeneID 33077) the results were raw ATP luminescence, replicate 1 = 2.57e5; raw ATP luminescence, replicate 2 = 2.76e5.
Silencing of CG5715 (GeneID 42895) came out at: raw ATP luminescence, replicate 1 = 62310; raw ATP luminescence, replicate 2 = 60870.
Depletion of PGRP-LC (GeneID 39063) #1 resulted in: raw ATP luminescence, replicate 1 = 1.82e5; raw ATP luminescence, replicate 2 = 1.61e5.
After knock-down of PGRP-LC (GeneID 39063) #2 the results were raw ATP luminescence, replicate 1 = 71913; raw ATP luminescence, replicate 2 = 74400.
Depletion of PGRP-LC (GeneID 39063) #3 gave: raw ATP luminescence, replicate 1 = 75737; raw ATP luminescence, replicate 2 = 58507.
With knock-down of CG3348 (GeneID 50082) the results were raw ATP luminescence, replicate 1 = 51980; raw ATP luminescence, replicate 2 = 42190.
Depletion of CG31200 (GeneID 326124) gave: raw ATP luminescence, replicate 1 = 59060; raw ATP luminescence, replicate 2 = 61370.
Against ClC-a (GeneID 41428) #1, the values are raw ATP luminescence, replicate 1 = 58317; raw ATP luminescence, replicate 2 = 49750.
Silencing of ClC-a (GeneID 41428) #2 gave: raw ATP luminescence, replicate 1 = 61543; raw ATP luminescence, replicate 2 = 60933.
ClC-a (GeneID 41428) #3 scored raw ATP luminescence, replicate 1 = 58093; raw ATP luminescence, replicate 2 = 30360.
For eIF3f2 (GeneID 35547), the values are raw ATP luminescence, replicate 1 = 46460; raw ATP luminescence, replicate 2 = 53200.
With knock-down of Lnpk (GeneID 35842), the record shows raw ATP luminescence, replicate 1 = 92583; raw ATP luminescence, replicate 2 = 51803.
wake (GeneID 42676) #1 showed raw ATP luminescence, replicate 1 = 47830; raw ATP luminescence, replicate 2 = 54560.
wake (GeneID 42676) #2 showed raw ATP luminescence, replicate 1 = 63440; raw ATP luminescence, replicate 2 = 76820.
Had2 (GeneID 36624) gave raw ATP luminescence, replicate 1 = 46213; raw ATP luminescence, replicate 2 = 50170.
sit (GeneID 42658) showed raw ATP luminescence, replicate 1 = 73730; raw ATP luminescence, replicate 2 = 69520.
Against CG11456 (GeneID 40309) the deposit lists raw ATP luminescence, replicate 1 = 20790; raw ATP luminescence, replicate 2 = 29390.
Nct (GeneID 42964) gave raw ATP luminescence, replicate 1 = 40617; raw ATP luminescence, replicate 2 = 41937.
After knock-down of Nep7 (GeneID 43356), the screen gave raw ATP luminescence, replicate 1 = 52810; raw ATP luminescence, replicate 2 = 44090.
For Phae2 (GeneID 34638), the values are raw ATP luminescence, replicate 1 = 72803; raw ATP luminescence, replicate 2 = 76623.
CG31219 (GeneID 42344) scored raw ATP luminescence, replicate 1 = 57600; raw ATP luminescence, replicate 2 = 58700.

Targets above whose target name starts with W or w:
wake (GeneID 42676) #1: raw ATP luminescence, replicate 1 = 47830; raw ATP luminescence, replicate 2 = 54560
wake (GeneID 42676) #2: raw ATP luminescence, replicate 1 = 63440; raw ATP luminescence, replicate 2 = 76820
